# The other results are listed elsewhere or left out. Many values rest on one well or one pass, so single values are uncertain.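 Imaging used 1,536-well plates; nuclei positive for cleaved PARP by antibody were divided by total DNA-stained nuclei to yield the apoptosis fraction. Doses for screening kept most cells viable, and cell lines differ markedly in resting and induced cleaved-PARP levels.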
# Columns and labels:
# Assay in all cases: cleaved PARP positive nuclei fraction relative to DMSO control; melanoma cells; higher = more apoptosis
# Conditions in all cases: library dose: low library concentration; 72 h
# WM115 = system: WM115
# WM1716 = system: WM1716
# WM1745 = system: WM1745
# WM3526 = system: WM3526
# WM3619 = system: WM3619
# WM451Lu = system: WM451Lu
compound,measurement,setting,value
"CC[C@]1(O)C[C@H]2CN(CCc3c([nH]c4ccccc34)[C@@](C(=O)OC)(c3cc4c(cc3OC)N(C=O)[C@H]3[C@@](O)(C(=O)OC)[C@H](OC(C)=O)[C@]5(CC)C=CCN6CC[C@]43[C@@H]65)C2)C1 [vincristine] + Cn1nnc2c(C(N)=O)ncn2c1=O [temozolomide] (first compound 0.0001 µM, partner dose 2 µM)",cleaved PARP positive nuclei fraction,WM115,1240%
same,cleaved PARP positive nuclei fraction,WM1716,108%
same,cleaved PARP positive nuclei fraction,WM1745,99.3%
same,cleaved PARP positive nuclei fraction,WM3526,82%
same,cleaved PARP positive nuclei fraction,WM3619,150%
same,cleaved PARP positive nuclei fraction,WM451Lu,83.1%
"Cc1cc(Nc2cc(N3CCN(C)CC3)nc(Sc3ccc(NC(=O)C4CC4)cc3)n2)n[nH]1 [Tozasertib] + C#Cc1cccc(Nc2ncnc3cc(OCCOC)c(OCCOC)cc23)c1 [erlotinib] (first compound 0.006 µM, partner dose 0.8 µM)",cleaved PARP positive nuclei fraction,WM115,41.7%
same,cleaved PARP positive nuclei fraction,WM1716,125%
same,cleaved PARP positive nuclei fraction,WM1745,109%
same,cleaved PARP positive nuclei fraction,WM3526,340%
same,cleaved PARP positive nuclei fraction,WM3619,74.8%
same,cleaved PARP positive nuclei fraction,WM451Lu,59.5%
"O=C(/C=C/c1cccnc1)NCCCCC1CCN(C(=O)c2ccccc2)CC1 + CC(=O)c1c(C)c2cnc(Nc3ccc(N4CCNCC4)cn3)nc2n(C2CCCC2)c1=O [palbociclib] (first compound 0.01 µM, partner dose 0.04 µM)",cleaved PARP positive nuclei fraction,WM115,158%
same,cleaved PARP positive nuclei fraction,WM1716,55.4%
same,cleaved PARP positive nuclei fraction,WM1745,112%
same,cleaved PARP positive nuclei fraction,WM3526,52.9%
same,cleaved PARP positive nuclei fraction,WM3619,130%
same,cleaved PARP positive nuclei fraction,WM451Lu,73.3%
"Cc1cc(Nc2cc(N3CCN(C)CC3)nc(Sc3ccc(NC(=O)C4CC4)cc3)n2)n[nH]1 [Tozasertib] + CN1CCN(c2ccc3nc(-c4c(N)c5c(F)cccc5[nH]c4=O)[nH]c3c2)CC1 [Dovitinib] (first compound 0.006 µM, partner dose 0.1 µM)",cleaved PARP positive nuclei fraction,WM115,56.3%
same,cleaved PARP positive nuclei fraction,WM1716,101%
same,cleaved PARP positive nuclei fraction,WM1745,122%
same,cleaved PARP positive nuclei fraction,WM3526,44.9%
same,cleaved PARP positive nuclei fraction,WM3619,109%
same,cleaved PARP positive nuclei fraction,WM451Lu,35.3%
"O=c1[nH]nc(Sc2ncc([N+](=O)[O-])s2)n1-c1ccc2c(c1)OCCO2 + CC(=O)O[C@@]12CO[C@@H]1C[C@H](O)[C@@]1(C)C(=O)[C@H](O)C3=C(C)[C@@H](OC(=O)[C@H](O)[C@@H](NC(=O)OC(C)(C)C)c4ccccc4)C[C@@](O)([C@@H](OC(=O)c4ccccc4)[C@H]21)C3(C)C [Docetaxel] (first compound 0.2 µM, partner dose 0.0001 µM)",cleaved PARP positive nuclei fraction,WM115,282%
same,cleaved PARP positive nuclei fraction,WM1716,127%
same,cleaved PARP positive nuclei fraction,WM1745,159%
same,cleaved PARP positive nuclei fraction,WM3526,187%
same,cleaved PARP positive nuclei fraction,WM3619,121%
same,cleaved PARP positive nuclei fraction,WM451Lu,88.1%
"O=C(/C=C/c1cccnc1)NCCCCC1CCN(C(=O)c2ccccc2)CC1 + CCN(CC)CCCCNc1ncc2cc(-c3cc(OC)cc(OC)c3)c(NC(=O)NC(C)(C)C)nc2n1 [PD173074] (first compound 0.01 µM, partner dose 0.1 µM)",cleaved PARP positive nuclei fraction,WM115,20.7%
same,cleaved PARP positive nuclei fraction,WM1716,73.1%
same,cleaved PARP positive nuclei fraction,WM1745,84%
same,cleaved PARP positive nuclei fraction,WM3526,24.6%
same,cleaved PARP positive nuclei fraction,WM3619,92.8%
same,cleaved PARP positive nuclei fraction,WM451Lu,19.1%

# Two entries drawn at random from those above:
compound,measurement,setting,value
"CC[C@]1(O)C[C@H]2CN(CCc3c([nH]c4ccccc34)[C@@](C(=O)OC)(c3cc4c(cc3OC)N(C=O)[C@H]3[C@@](O)(C(=O)OC)[C@H](OC(C)=O)[C@]5(CC)C=CCN6CC[C@]43[C@@H]65)C2)C1 [vincristine] + Cn1nnc2c(C(N)=O)ncn2c1=O [temozolomide] (first compound 0.0001 µM, partner dose 2 µM)",cleaved PARP positive nuclei fraction,WM1745,99.3%
"Cc1cc(Nc2cc(N3CCN(C)CC3)nc(Sc3ccc(NC(=O)C4CC4)cc3)n2)n[nH]1 [Tozasertib] + CN1CCN(c2ccc3nc(-c4c(N)c5c(F)cccc5[nH]c4=O)[nH]c3c2)CC1 [Dovitinib] (first compound 0.006 µM, partner dose 0.1 µM)",cleaved PARP positive nuclei fraction,WM3619,109%
